Here are results for 20 targets from the supplement of paper PMC10849652.

Sequences of proteins named here, by UniProt entry; tags and fusion partners are left off. A change or cut given only in a name is not applied to a line headed by its entry.
UniProt Q13188: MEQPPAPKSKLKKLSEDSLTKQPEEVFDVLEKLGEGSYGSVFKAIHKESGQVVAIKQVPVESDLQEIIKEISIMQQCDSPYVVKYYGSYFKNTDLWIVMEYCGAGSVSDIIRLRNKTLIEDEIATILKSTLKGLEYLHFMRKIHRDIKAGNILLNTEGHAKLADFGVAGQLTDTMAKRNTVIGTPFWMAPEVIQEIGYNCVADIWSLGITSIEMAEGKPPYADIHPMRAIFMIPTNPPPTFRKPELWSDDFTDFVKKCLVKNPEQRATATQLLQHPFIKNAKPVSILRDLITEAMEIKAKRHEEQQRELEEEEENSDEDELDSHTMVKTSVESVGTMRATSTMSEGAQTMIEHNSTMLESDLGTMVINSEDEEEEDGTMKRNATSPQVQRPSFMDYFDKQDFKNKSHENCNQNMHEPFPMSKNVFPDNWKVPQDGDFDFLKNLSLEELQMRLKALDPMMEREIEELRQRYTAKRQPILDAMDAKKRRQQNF
UniProt Q5VWG9, whole entry, looked up: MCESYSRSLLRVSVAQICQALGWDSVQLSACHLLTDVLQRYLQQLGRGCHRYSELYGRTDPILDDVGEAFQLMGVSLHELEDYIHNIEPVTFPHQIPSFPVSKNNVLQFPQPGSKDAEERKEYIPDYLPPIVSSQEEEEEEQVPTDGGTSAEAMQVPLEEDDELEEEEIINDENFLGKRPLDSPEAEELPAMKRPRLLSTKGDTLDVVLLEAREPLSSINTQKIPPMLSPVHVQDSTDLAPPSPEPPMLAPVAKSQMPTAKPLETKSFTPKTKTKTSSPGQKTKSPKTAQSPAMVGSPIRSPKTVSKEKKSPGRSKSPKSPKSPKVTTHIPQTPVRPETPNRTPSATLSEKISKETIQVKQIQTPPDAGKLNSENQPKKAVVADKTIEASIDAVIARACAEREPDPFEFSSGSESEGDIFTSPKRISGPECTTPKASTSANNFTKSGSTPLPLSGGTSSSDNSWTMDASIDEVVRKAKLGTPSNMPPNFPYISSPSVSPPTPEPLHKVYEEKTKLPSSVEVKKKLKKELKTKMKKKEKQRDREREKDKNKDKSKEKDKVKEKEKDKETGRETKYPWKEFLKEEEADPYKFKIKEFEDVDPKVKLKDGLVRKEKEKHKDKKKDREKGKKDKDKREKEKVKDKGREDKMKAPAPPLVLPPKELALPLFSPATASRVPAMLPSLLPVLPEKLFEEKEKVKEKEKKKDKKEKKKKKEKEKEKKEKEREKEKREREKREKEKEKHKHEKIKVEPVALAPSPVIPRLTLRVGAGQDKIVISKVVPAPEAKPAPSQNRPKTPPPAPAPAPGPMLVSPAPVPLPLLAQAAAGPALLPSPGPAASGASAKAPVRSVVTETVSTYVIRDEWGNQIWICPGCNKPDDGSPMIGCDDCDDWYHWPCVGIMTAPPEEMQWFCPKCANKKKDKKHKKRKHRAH
UniProt Q8TDR2: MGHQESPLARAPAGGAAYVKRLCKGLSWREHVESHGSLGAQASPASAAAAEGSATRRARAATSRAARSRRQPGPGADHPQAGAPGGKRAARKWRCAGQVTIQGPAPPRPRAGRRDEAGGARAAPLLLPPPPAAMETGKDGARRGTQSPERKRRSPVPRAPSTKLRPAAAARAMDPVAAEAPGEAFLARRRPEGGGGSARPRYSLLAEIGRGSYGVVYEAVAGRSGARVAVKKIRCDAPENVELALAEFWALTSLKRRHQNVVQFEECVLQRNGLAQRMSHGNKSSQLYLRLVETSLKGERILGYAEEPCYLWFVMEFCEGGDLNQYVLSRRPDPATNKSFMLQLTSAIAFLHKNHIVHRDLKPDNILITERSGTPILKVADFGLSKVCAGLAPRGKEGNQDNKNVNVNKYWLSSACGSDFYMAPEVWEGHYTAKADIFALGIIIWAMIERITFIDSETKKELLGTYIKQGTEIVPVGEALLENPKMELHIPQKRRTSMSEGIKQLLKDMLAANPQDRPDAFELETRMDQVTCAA
UniProt O15061: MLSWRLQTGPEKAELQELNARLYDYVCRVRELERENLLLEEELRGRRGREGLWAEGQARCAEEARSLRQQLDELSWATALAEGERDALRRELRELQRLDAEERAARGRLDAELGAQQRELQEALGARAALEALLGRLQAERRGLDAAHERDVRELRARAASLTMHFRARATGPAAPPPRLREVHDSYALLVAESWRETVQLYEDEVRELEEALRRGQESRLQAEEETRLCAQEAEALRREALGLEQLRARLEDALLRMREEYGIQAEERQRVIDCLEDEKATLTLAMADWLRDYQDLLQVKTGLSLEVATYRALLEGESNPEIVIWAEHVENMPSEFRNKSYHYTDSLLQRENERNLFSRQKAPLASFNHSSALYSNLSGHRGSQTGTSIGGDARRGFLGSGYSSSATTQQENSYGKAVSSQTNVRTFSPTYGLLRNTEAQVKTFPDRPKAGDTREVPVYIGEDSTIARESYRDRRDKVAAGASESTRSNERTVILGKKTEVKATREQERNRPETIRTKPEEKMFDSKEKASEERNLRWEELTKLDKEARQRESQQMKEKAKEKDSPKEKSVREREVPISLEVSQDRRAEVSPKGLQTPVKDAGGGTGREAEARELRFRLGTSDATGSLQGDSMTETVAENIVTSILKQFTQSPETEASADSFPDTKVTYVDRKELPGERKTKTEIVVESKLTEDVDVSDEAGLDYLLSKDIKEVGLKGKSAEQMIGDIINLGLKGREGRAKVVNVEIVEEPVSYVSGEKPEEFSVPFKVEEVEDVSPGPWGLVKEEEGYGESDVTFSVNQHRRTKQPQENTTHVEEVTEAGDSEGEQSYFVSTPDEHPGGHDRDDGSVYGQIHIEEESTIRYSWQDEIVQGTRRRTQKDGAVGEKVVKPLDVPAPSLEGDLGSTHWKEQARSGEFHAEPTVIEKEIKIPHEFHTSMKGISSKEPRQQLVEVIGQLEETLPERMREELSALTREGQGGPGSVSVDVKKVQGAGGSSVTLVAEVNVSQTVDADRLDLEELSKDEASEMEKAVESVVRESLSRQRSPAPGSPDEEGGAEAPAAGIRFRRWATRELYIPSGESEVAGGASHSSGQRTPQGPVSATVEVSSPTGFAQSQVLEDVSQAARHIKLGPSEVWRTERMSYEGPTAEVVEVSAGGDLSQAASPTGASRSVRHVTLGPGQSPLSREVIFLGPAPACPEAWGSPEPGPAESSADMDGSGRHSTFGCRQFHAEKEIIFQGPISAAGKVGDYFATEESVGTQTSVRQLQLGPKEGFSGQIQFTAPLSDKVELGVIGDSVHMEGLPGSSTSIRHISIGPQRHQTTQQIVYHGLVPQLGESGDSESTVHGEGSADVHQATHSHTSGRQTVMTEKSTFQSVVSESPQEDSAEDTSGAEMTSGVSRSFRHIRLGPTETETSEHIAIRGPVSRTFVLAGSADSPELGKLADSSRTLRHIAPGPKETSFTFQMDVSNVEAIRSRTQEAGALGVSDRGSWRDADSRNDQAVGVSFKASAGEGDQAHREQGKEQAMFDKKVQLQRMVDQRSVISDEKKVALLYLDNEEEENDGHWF
UniProt Q9Y6Q2: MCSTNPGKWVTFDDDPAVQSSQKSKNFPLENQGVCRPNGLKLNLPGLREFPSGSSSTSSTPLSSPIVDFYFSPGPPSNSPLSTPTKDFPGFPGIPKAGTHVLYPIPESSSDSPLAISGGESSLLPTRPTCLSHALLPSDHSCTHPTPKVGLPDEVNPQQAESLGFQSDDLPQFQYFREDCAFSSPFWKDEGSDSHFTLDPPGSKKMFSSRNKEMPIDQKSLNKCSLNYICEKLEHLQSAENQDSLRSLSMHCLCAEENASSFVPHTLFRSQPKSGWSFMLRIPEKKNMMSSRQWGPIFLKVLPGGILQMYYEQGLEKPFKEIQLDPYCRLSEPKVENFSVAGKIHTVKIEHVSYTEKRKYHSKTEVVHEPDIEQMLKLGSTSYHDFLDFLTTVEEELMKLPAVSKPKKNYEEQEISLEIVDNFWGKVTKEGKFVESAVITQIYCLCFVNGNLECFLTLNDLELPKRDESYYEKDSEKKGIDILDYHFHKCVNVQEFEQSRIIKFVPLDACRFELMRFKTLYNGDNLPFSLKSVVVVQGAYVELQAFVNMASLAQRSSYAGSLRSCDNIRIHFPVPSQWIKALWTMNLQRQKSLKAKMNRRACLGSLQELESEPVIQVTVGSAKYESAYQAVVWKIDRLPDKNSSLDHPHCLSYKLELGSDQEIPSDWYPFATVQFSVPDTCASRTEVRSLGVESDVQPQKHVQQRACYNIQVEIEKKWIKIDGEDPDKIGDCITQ
UniProt Q6UWL2: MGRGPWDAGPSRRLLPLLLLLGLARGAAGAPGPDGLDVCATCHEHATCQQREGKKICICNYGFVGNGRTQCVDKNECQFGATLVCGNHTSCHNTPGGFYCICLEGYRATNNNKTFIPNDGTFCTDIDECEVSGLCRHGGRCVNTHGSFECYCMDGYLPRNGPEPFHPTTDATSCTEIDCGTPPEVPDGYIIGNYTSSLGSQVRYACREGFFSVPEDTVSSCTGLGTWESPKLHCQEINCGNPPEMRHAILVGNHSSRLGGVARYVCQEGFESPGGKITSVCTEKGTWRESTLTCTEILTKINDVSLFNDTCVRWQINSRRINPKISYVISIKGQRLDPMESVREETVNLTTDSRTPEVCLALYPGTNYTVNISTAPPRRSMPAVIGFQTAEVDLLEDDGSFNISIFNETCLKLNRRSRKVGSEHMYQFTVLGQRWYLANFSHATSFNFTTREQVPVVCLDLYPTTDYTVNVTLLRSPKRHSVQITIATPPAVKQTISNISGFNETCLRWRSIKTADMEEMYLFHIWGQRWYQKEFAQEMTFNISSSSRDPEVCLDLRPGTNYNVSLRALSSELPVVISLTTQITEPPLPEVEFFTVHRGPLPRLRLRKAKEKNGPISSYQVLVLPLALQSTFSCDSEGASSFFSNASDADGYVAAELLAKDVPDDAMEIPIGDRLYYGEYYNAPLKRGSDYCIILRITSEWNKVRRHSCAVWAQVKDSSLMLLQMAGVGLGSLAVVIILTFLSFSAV
UniProt Q9UMX1: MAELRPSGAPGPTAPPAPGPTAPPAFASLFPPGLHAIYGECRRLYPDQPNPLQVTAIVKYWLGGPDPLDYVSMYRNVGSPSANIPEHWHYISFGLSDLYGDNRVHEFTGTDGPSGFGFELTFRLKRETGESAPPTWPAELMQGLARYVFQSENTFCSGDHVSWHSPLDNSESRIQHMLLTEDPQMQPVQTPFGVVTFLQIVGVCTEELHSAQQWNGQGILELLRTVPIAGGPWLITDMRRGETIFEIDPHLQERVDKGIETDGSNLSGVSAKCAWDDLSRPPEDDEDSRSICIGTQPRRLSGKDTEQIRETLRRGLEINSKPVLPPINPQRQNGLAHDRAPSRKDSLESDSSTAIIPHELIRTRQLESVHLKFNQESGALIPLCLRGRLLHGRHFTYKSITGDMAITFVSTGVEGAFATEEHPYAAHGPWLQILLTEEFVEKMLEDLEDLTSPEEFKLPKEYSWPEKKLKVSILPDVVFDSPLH
UniProt Q15543, whole entry, looked up: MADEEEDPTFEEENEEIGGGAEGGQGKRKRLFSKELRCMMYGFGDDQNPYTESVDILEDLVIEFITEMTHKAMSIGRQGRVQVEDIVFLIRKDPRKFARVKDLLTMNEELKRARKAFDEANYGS
UniProt Q8NFX7: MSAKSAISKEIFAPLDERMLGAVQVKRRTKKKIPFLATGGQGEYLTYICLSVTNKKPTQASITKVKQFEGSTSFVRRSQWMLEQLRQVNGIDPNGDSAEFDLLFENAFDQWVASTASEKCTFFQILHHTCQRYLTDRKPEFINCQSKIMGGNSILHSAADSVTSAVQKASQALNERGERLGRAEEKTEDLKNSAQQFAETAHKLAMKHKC
UniProt Q8N300: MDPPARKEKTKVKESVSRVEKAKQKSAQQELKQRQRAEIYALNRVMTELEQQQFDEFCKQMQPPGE
UniProt Q9C0K7: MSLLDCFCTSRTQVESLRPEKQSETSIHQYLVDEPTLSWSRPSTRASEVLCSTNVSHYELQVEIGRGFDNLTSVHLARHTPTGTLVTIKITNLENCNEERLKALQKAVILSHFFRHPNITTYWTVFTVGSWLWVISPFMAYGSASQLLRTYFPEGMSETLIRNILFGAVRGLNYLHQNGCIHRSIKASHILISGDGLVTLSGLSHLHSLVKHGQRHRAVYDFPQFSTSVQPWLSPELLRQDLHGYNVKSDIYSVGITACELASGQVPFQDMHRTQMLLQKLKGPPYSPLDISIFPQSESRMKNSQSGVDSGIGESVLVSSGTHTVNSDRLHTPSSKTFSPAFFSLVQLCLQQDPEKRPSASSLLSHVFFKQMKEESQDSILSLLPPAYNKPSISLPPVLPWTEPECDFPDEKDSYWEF
UniProt Q96L08: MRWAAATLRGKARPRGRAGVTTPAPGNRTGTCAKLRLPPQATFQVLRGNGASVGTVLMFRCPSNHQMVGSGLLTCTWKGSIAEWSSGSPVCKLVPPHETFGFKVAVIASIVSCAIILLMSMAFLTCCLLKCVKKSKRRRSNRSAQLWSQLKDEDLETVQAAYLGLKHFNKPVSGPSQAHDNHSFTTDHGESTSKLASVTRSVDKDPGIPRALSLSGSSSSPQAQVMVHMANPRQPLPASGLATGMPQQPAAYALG

Common to all, as to assay: log2 fold change, soluble protein after heating vs DMSO (PISA); higher = thermal stabilisation; K562 lysate, 10 uM; active = over 0.2 and 3.5 SD of the protein, either way, in both replicates (recomputed)
Compound in one test: Cc1cn(-c2cc(NC(=O)c3ccc(C)c(Nc4nccc(-c5cccnc5)n4)c3)cc(C(F)(F)F)c2)cn1 [nilotinib]
In short, it runs like this:
(§1)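 Following dounce homogenisation of K562 pellets in PBS pH 7.4 with 1 mM MgCl2, crude extract at 1 mg/mL protein was incubated for 30 min with 10 μM compound. Aliquots were then heated for 3 min over 48°C-58°C and pooled, NP-40 was added to 0.5% at 4°C, and soluble protein was recovered as the supernatant at 21,000xg for 90 min. Channel-sum-equalised TMTpro 16plex LC-MS/MS quantified this protein. Each value, from duplicates, is a log-two fold change in thermal stability relative to solvent controls.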

Compound in test [1]: Cc1nc(Nc2n[nH]c3c2CN(C(=O)N[C@H](CN(C)C)c2ccccc2)C3(C)C)c2sccc2n1
The procedure, abridged: as §1

Compound in the next test: Cc1nc(Nc2ncc(C(=O)Nc3c(C)cccc3Cl)s2)cc(N2CCN(CCO)CC2)n1 [dasatinib]
In short, it runs like this: as §1

Compound in test [2]: Cc1ncc(-c2ccnc(Nc3ccc(S(C)(=O)=O)cc3)n2)n1C(C)C
In short, it runs like this: as §1

Compound in test [3]: Cn1cc(-c2ccc3c(c2)CCN3C(=O)Cc2cccc(C(F)(F)F)c2)c2c(N)ncnc21
In short, it runs like this: as §1

Compound in the next test: Cn1cc(CNCC2CCN(c3ncc(C(=O)NO)cn3)CC2)c2ccccc21 [quisinostat]
In short, it runs like this: as §1

Compound in a further test: Cn1cncc1[C@@](N)(c1ccc(Cl)cc1)c1ccc2c(c1)c(-c1cccc(Cl)c1)cc(=O)n2C [tipifarnib]
The procedure, abridged:
as §1

Compound in test [4]: NC(=O)c1cnc(N[C@@H]2CCCC[C@@H]2N)nc1Nc1cccc(-n2nccn2)c1
The procedure, abridged:
as §1

Compound in test [5]: NC1(c2ccc(-c3nc4ccn5c(=O)[nH]nc5c4cc3-c3ccccc3)cc2)CCC1
In short, it runs like this: as §1

Compound in test [6]: NCC(=O)Nc1ccc(-n2nc(C(F)(F)F)cc2-c2ccc3c(ccc4ccccc43)c2)cc1
The procedure, abridged: as §1

Compound in the next test: O=C(CCCCCCC(=O)Nc1ccccc1)NO [vorinostat]
The procedure, abridged: as §1

Compound in another test: O=C(O)c1ccc2c(c1)nc(Nc1cccc(Cl)c1)c1ccncc12 [silmitasertib]
The procedure, abridged: as §1

Compound in test [7]: O=C1NC(=O)C(c2cnc3ccccn23)=C1c1cn2c3c(cc(F)cc13)CN(C(=O)N1CCCCC1)CC2
In short, it runs like this: as §1

Compound in the next test: c1cn2cc(-c3ccc4cn[nH]c4c3)nc(Nc3ccc(N4CCOCC4)cc3)c2n1 [entospletinib]
The procedure, abridged: as §1

Compound in test [8]: NC(=O)Nc1cc(-c2cccc(F)c2)sc1C(=O)N[C@H]1CCCNC1
In short, it runs like this: as §1

This is one part of the list.

On to STK3 isoform 2 (UniProt Q13188), for which the log2 fold change with nilotinib is inactive: 0.015; in test [1] it was inactive: 0.274; in the test with dasatinib, inactive: 0.132; in test [2] it was inactive: 0.179; in test [3], inactive: 0.276; with quisinostat, inactive: -0.077. Also, the log2 fold change with tipifarnib is inactive: -0.014; in test [4] it was inactive: 0.108; in [5] it was inactive: -0.01; in test [6] it was inactive: 0.034; with vorinostat it was inactive: -0.05; with silmitasertib, inactive: 0.022. Further, the log2 fold change in test [7] was inactive: 0.025; in the test with entospletinib, inactive: -0.003.

Turning to TAF3 (UniProt Q5VWG9), the log2 fold change is inactive: 0.013 with nilotinib; inactive: -0.145 in [1]; inactive: -0.226 in test [2]; inactive: -0.003 with tipifarnib; inactive: 0.074 in test [4].

Turning to STK35 (UniProt Q8TDR2), the log2 fold change in test [3] is inactive: 0.041; in test [4], inactive: 0.014; with entospletinib it was inactive: 0.067.

As for SYTL2 isoform 8 (UniProt Q9HCH5), the figures for the log2 fold change (with dasatinib; in [3]; in test [4]) were inactive: 0.005, inactive: -0.083 and inactive: -0.02, respectively.

As to SYNM (UniProt O15061), the log2 fold change with entospletinib is inactive: -0.081.

SZT2 (UniProt Q5T011): the log2 fold change with nilotinib was inactive: -0.03; in test [1] it was inactive: 0.434; with dasatinib, inactive: 0.04; in [2], inactive: 0.02; in test [3] it was inactive: -0.122; in the test with tipifarnib it was inactive: -0.019. Further, the log2 fold change in test [4] was inactive: -0.009; in test [5] it was inactive: -0.046; with vorinostat, active: 1.2; in the test with silmitasertib, inactive: -0.081; with entospletinib it was inactive: -0.1.

Consider STON1 isoform 2 (UniProt Q9Y6Q2), for which the log2 fold change with nilotinib was inactive: 0.295; in test [1], inactive: -0.212; in [2] it was inactive: -0.006; in the test with tipifarnib it was inactive: 0.095; in test [4], inactive: -0.008; in [5] it was inactive: -0.095. Also, the log2 fold change with vorinostat is inactive: 0.263; with silmitasertib, inactive: -0.132.

On to SUSD1 isoform 2 (UniProt Q6UWL2), for which the log2 fold change in the test with dasatinib was inactive: 0.035; in test [3] it was inactive: 0.02; with quisinostat, inactive: -0.051; in test [8], inactive: 0.053; in test [5], inactive: -0.06; with vorinostat, inactive: 0.192. The log2 fold change with silmitasertib was inactive: 0.141; in test [7], inactive: -0.066; with entospletinib, inactive: -0.048.

Take SUFU (UniProt Q9UMX1): the log2 fold change with quisinostat was inactive: 0.141; in test [8] it was inactive: -0.028; in [4], inactive: -0.138; in test [6], inactive: -0.058; in [7], inactive: 0.238.

On to TAF13 (UniProt Q15543), for which the log2 fold change with nilotinib was inactive: 0.066; in test [1], inactive: 0.011; in test [2] it was inactive: -0.079; with tipifarnib it was inactive: -0.042; in [5], inactive: -0.016; in test [6], inactive: 0.099. Further, the log2 fold change with vorinostat was inactive: 0.271; with silmitasertib it was inactive: -0.034.

With STXBP6 (UniProt Q8NFX7), the log2 fold change was inactive: -0.037 in the test with nilotinib; inactive: -0.004 in [1]; inactive: 0.035 in test [2]; inactive: -0.072 in the test with quisinostat; inactive: 0.013 in the test with tipifarnib; inactive: -0.042 in test [8]. In addition, the log2 fold change in test [5] was inactive: 0.114; in the test with vorinostat, inactive: -0.412; with silmitasertib, inactive: 0.087; in test [7], inactive: -0.04.

SWSAP1 (UniProt Q6NVH7): the log2 fold change in the test with nilotinib was inactive: -0.136; in [1], inactive: 0.031; in the test with dasatinib, inactive: 0.038; in test [2], inactive: 0.02; in [3], inactive: -0.021; with tipifarnib, inactive: 0.062. Also, the log2 fold change was inactive: 0.233 in test [5], inactive: 0.022 in the test with vorinostat and inactive: 0.021 with silmitasertib.

With STK26 isoform 3 (UniProt Q9P289), the log2 fold change in the test with dasatinib was inactive: 0.181; in test [3], inactive: -0.028; in the test with quisinostat, inactive: 0.093; in [8], inactive: 0.203; in test [7], inactive: 0.014; in the test with entospletinib, inactive: 0.116.

SVBP (UniProt Q8N300): the log2 fold change was inactive: 0.031 with nilotinib; inactive: 0.077 in test [1]; inactive: 0.032 in test [2]; inactive: -0.096 with quisinostat; inactive: -0.006 with tipifarnib; inactive: -0.007 in test [8]. Also, the log2 fold change in [5] is inactive: 0.174; in the test with vorinostat, inactive: -0.311; with silmitasertib it was inactive: -0.049; in [7] it was inactive: 0.008; with entospletinib, inactive: 0.136.

Consider STRADB (UniProt Q9C0K7), for which the log2 fold change in test [5] was inactive: 0.141; with vorinostat, inactive: 0.059; with silmitasertib, inactive: -0.416.

For SUSD3 (UniProt Q96L08), the log2 fold change in [4] is inactive: -0.054; in test [5], inactive: 0.101; with vorinostat, inactive: 0.312; with silmitasertib, inactive: -0.129.

For the target STRN3 isoform 2 (UniProt Q13033), the values for the log2 fold change (with dasatinib; in test [3]) were inactive: 0.155 and inactive: -0.093, respectively.

On to TACC3 (UniProt C9JWI7), for which the log2 fold change in test [6] is inactive: 0.055.

With SULT1A3 isoform 3 (UniProt P0DMM9), the log2 fold change with nilotinib was inactive: 0.023; in test [1] it was inactive: -0.005; with dasatinib it was inactive: -0.039; in test [2], inactive: -0.013; in test [3], inactive: 0.28; with quisinostat it was inactive: -0.066. For the same target, the log2 fold change with tipifarnib was inactive: 0.036; in test [8] it was inactive: 0.039; in [5], inactive: 0.05; with vorinostat, inactive: -0.267; in the test with silmitasertib, inactive: 0.053; in [7], inactive: -0.023. Also, the log2 fold change with entospletinib is inactive: -0.041.

Consider SYNGR2 (UniProt K7EJ35), for which the log2 fold change with nilotinib is inactive: 0.066; in test [1] it was inactive: -0.092; in test [2] it was inactive: 0.114; with tipifarnib, inactive: 0.05.
